PubChem BioAssay AID504791 – Drosophila RNAi Screening Center, 2011
The deposit covers about 23,000 reagents; below is an unselected part of those that have a named target and a result. Of all reagents, 199 (0.86%) were called active. 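Plate-scaled ratios behind the calls are not deposited; printed light signals are raw; many rows marked increased or decreased are still called inactive.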 A number with no mark means an inactive call. Reagents against one gene are numbered here. Not given: the direction of the score.

Aim: 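Genes of the fly required for silencing by miRNA, siRNA or endo-siRNA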 (primary screen)
System: Drosophila S2-derived reporter cells
Reagent: long dsRNA against Drosophila genes, about 150-250 ng dsRNA per well (siRNA assay); about 80-120 ng (miRNA assay)
Time to read-out: about 5 days (siRNA assay); about 4 days (miRNA assay)
Conditions: copper sulfate induction of reporters: 25 µM (siRNA assay); 200 mM stated (miRNA assay), 1-2 days before reading
Measurement: 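Dual luciferase assay: Renilla to firefly signal ratio in each well, scaled to the mean ratio of its plate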
Call rule: 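First-pass picks had plate-scaled ratios over 1.5 for the siRNA assay, over 1.6 for the miRNA assay, or under 0.6; two distinct dsRNAs had to score alike on retest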

no.	Target gene	reagent	stable siRNA reporter change	stable assay Renilla, run 1 (luminescence)	stable assay firefly, run 1 (luminescence)
1	CG6108 (retired record)	1		7182	5.49e5
2	CG2321	1		8227	5.11e5
3	CG7627	1		64076	7.62e5
4	Timp (Tissue inhibitor of metalloproteases)	1		7414	3.86e5
5	Alms1a (Alstrom syndrome 1a)	1		5715	2.85e5
6	Ack-like (Activated Cdc42 kinase-like)	1		7932	5.10e5
7	crc (cryptocephal)	1		6882	2.72e5
8	Dhpr (Dihydropteridine reductase)	1		6258	5.08e5
9	His2Av (Histone H2A variant)	1		14648	5.70e5
10	CG17258	1	reporter ratio lowered past the hit cutoff	7418	6.97e5
11	CG17258	2		5026	5.90e5
12	GstD11 (Glutathione S transferase D11)	1		6292	4.05e5
13	Naa30A (N(alpha)-acetyltransferase 30 A)	1		8650	3.68e5
14	Naa30A (N(alpha)-acetyltransferase 30 A)	2		1268	63240
15	CG9578	1		7470	4.31e5
16	GstE13 (Glutathione S transferase E13)	1		9310	5.02e5
17	Akh (Adipokinetic hormone)	1		6222	3.75e5
18	CG10077	1		8828	5.72e5
19	CG12835 (retired record)	1		10401	4.16e5
20	CG8509	1		7920	5.66e5
21	angel	1		7468	6.67e5
22	angel	2		10737	6.58e5
23	CG12945	1		7288	3.99e5
24	Wwox (WW domain containing oxidoreductase)	1		66007	3.01e5
25	Wwox (WW domain containing oxidoreductase)	2		5212	5.43e5
26	Jheh3 (Juvenile hormone epoxide hydrolase 3)	1		10598	3.91e5
27	Nup54 (Nucleoporin 54kD)	1		6200	3.29e5
28	Obp50d (Odorant-binding protein 50d)	1		6819	4.64e5
29	Grl36b (Gustatory receptor-like 36b)	1		5244	3.90e5
30	CG11825	1		6270	3.77e5
31	CG31525	1		5695	3.36e5
32	CG13036 (retired record)	1		7496	3.68e5
33	CG40045	1		4851	3.20e5
34	br (broad)	1		8123	3.70e5
35	br (broad)	2		4751	2.35e5
36	br (broad)	3		5048	3.80e5
37	br (broad)	4		4031	2.00e5

Limited to “stable assay Renilla, run 1 (luminescence)” (3 entries from above):
angel #1: 7468
angel #2: 10737
CG12945: 7288
